Among all 300,000 compounds or so, about 5,400 (1.8%) were called active. Where a call stands in place of a potency, no number is given. The inconclusive results got no clear call from the source; some entries with a clear call stand among them for comparison. Calls follow the shape of the full dose curve; tested in HEK293 cells. Potencies beside an inconclusive call are fits to weak or partial responses and may not hold up.
assay: qHTS for inhibitors of binding or entry into cells for Marburg Virus; conditions: Marburg virus pseudotyped entry inhibition, cell reporter; activity change, negative = inhibition: at 37.8 µM (top of the series) unless noted
Potency is read from the fitted curve at half-maximal effect.

Row | Compound | Potency | activity change, negative = inhibition
1 | CC(C)(C)NC(=O)C1CCC(CNc2c(N3CCCCC3)c(=O)c2=O)CC1 (centres undefined) | inactive | –
2 | CN(Cc1nc(CC2CC2)no1)CC12CC3CC(CC(C3)C1)C2 | inconclusive: 22.4 µM [activator, single point] | –
3 | CCc1cc(C(=O)N2CCc3c([nH]c4ccccc34)C2c2ccc(OC)cc2F)no1 (centres undefined) | active: 0.891 µM | –
4 | CCCC1=[N+](CC(=O)c2ccc(C)cc2)CCn2cccc21 | inconclusive: 6.31 µM [activator, single point] | –
5 | COc1cc2c(=O)n(Cc3ccccc3Cl)c(=O)n(CC(=O)Nc3ccccc3)c2cc1OC | inconclusive: 3.16 µM [inhibitor, partial curve, poor fit] | –
6 | FC(F)(F)c1ccc(N/N=C/c2cccnc2)nc1 | inactive | –
7 | CC(C)(C)NC(=O)CN1CCC(O)(c2ccc3c(c2)OCO3)CC1 | inactive | –
8 | COc1ccc(C(=O)NCCc2nnc3ccc(SCC(=O)NCc4ccc(F)cc4)nn23)cc1 | inactive | –
9 | CCCN[C@@H](C)C(=O)Nc1ccccc1C | inactive | –
10 | CC(/C=N/n1cnnc1)=C\c1ccccc1 | inactive | –
11 | COc1ccc2c(c1)CCCN2C(N)=Nc1ccc(Cl)cc1 | inconclusive: 10 µM [inhibitor, partial curve, poor fit] | –
12 | Cc1nc(C(F)(F)F)ccc1C(=O)NN1CCOCC1 | inactive | –
13 | O=c1[nH]c(Cc2ccccc2)nc2c1oc1ccccc12 | inactive | –
14 | COc1ccc2oc(C(=O)NCCc3ccccc3)c(C)c2c1 | inconclusive: 8.91 µM [inhibitor, partial curve, poor fit] | –
15 | O=Cc1ccc(O)c2ncccc12 | inconclusive: 22.4 µM [inhibitor, single point] | –
16 | COc1ccc(C(=O)N2CC3(C)CC2CC(C)(C)C3)cc1OC (centres undefined) | inconclusive: 1 µM [activator, partial curve, poor fit] | –
17 | COc1cccc(-n2c(-c3ccc(Cl)cc3)cc3c2CC(C)(C)CC3=O)c1 | inactive | –
18 | CSc1ccccc1C(=O)N1CCN(c2cccc(Cl)c2)CC1 | inconclusive: 1.58 µM [inhibitor, full curve, poor fit] | –
19 | COc1cccc(C(=O)OCC(=O)NC23CC4CC(CC(C4)C2)C3)c1 | inactive | –
20 | CCS(=O)(=O)Nc1c(C(=O)OC)[nH]c2ccccc12 | inactive | –
21 | COc1cc2c(cc1OC)C(COc1ccc(F)cc1)N(C(=O)c1ccco1)CC2 (centres undefined) | inconclusive: 29.1 µM [inhibitor, single point] | –
22 | O=C(COc1ncnc2cc(Cl)ccc12)c1ccc2c(c1)OCCO2 | inactive | –
23 | CC(C)CN1C(=O)C(=O)N(CC(=O)c2ccc3c(c2)CCCC3)C1=O | inconclusive: 1.41 µM [inhibitor, partial curve, poor fit] | –
24 | Cc1nn(-c2ccc(Cl)cc2)c(=O)c2ccccc12 | inactive | –
25 | O=C(COC(=O)c1ccc(Cl)c(S(=O)(=O)N2CCCC2)c1)NCc1ccccc1 | inconclusive: 3.55 µM [inhibitor, full curve, poor fit] | –
26 | C=CCSc1nnc(-c2c[nH]c3ccccc23)n1CC | inactive | –
27 | CCOC(=O)c1c(C)c(C(=O)Nc2ccc3c(c2)OCO3)c(C)n1C | inactive | –

Row | Compound | Potency | activity change, negative = inhibition
28 | O=C(CN1CCCCC1)Nc1nc(-c2ccccc2)cs1 | inactive | –
29 | N#Cc1ccccc1NC(=O)c1ccc2c(Cl)c3c(nc2c1)CCCC3 | inconclusive: 2.82 µM [activator, partial curve, poor fit] | –
30 | CCOc1ccccc1CNCCNC(=O)c1nonc1N | inconclusive: 1.58 µM [inhibitor, partial curve, poor fit] | –
31 | Cc1nn2c(N)c(-c3ccccc3)cnc2c1-c1ccc(Cl)cc1 | inconclusive: 4.47 µM [activator, partial curve, poor fit] | –
32 | COC(=O)c1ccc(C(=O)OC)c(NC(=O)Nc2ccc3c(c2)OCO3)c1 | inactive | –
33 | Cc1cc(C)n(-c2nnc(C)n2NC(=O)c2cccc(Cl)c2)n1 | inconclusive: 0.517 µM [activator, full curve, poor fit] | –
34 | O=C(Nc1nc(-c2ccccc2)cs1)c1cccc([N+](=O)[O-])c1 | inactive | –
35 | CCCn1c(SCc2nc3ccccc3s2)n[nH]c1=O | inactive | –
36 | O=C(COC(=O)c1cccc(-n2cnnn2)c1)c1ccc(F)cc1 | inactive | –
37 | CCC(C)c1ccc(NC(=O)c2cnn3c(C(F)F)cc(C)nc23)cc1 (centres undefined) | inconclusive: 3.55 µM [activator, single point] | –
38 | COc1cccc(CN2CCNC(=O)C2CC(=O)N2CCOc3ccccc3C2)c1OC (centres undefined) | – | inconclusive: 11.8% [activator] [at 46.1 µM]
39 | O=C(c1cccnc1)N(c1cc2sc(=O)oc2c2ccccc12)S(=O)(=O)c1ccccc1 | inconclusive: 1.78 µM [activator, single point] | –
40 | Cc1ccccc1-c1nc2sc3c(c2c(=O)o1)CCC3 | inactive | –
41 | CN1CCC(Oc2ccc(Sc3ccccc3)cc2)CC1 | inconclusive: 29.1 µM [inhibitor, single point] | –
42 | CN(C)c1ccc(N=Nc2ccccc2C(=O)OCC(=O)N2CCCC2)cc1 | inactive | –
43 | Cc1ccccc1NS(=O)(=O)c1ccc(OCC(=O)N2CCCC2)cc1 | – | inconclusive: 43.3% [activator]
44 | CCOC(=O)CNC(=O)C1c2cc(OC)c(OC)cc2C(=O)N(C)C1c1ccccc1F (centres undefined) | inactive | –
45 | O=C1CCCC(O)=C1C=NCc1ccccc1 | inactive | –
46 | CCOC(=O)c1cnc2c(-c3ccccc3)cnn2c1C | inactive | –
47 | CCOc1cc2c(cc1OC)C(NC(=O)c1ccco1)CC2=O (centres undefined) | inactive | –
48 | Cc1ccc(C(O)(c2ccccc2)c2ccccc2C(C)N(C)C)c(C)c1 (centres undefined) | active: 5.8 µM | –
49 | COc1ccc(C2NCc3ccc4c(c3-n3cccc32)OCO4)cc1OC (centres undefined) | inconclusive: 35.5 µM [inhibitor, single point] | –
50 | CCCN1C(=O)N(C)C(N(O)C(=O)NC)C1(C)C (centres undefined) | inconclusive: 25.1 µM [activator, single point] | –
51 | COCCN1C(=O)N[C@H](c2cccc(C(F)(F)F)c2)C(C(=O)OC)=C1C | inactive | –
52 | CC1CCN(C(=O)COc2coc(CN3CCc4ccccc43)cc2=O)CC1 | inconclusive: 3.16 µM [inhibitor, partial curve, poor fit] | –
53 | O=C(CCc1nc2ccccc2n1-c1ccccc1)NCCO | inconclusive: 1.12 µM [inhibitor, single point] | –
54 | CC(=O)c1ccc(OCC(=O)Nc2ccccc2N2CCCC2)cc1 | inactive | –

Copied from the list.
Under Potency, N#Cc1ccccc1NC(=O)c1ccc2c(Cl)c3c(nc2c1)CCCC3 has the entry inconclusive: 2.82 µM [activator, partial curve, poor fit]
Under Potency, CC(C)(C)NC(=O)CN1CCC(O)(c2ccc3c(c2)OCO3)CC1 has the entry inactive
Under Potency, CCOc1cc2c(cc1OC)C(NC(=O)c1ccco1)CC2=O (centres undefined) has the entry inactive
Under Potency, O=C(CN1CCCCC1)Nc1nc(-c2ccccc2)cs1 has the entry inactive
Under Potency, O=C1CCCC(O)=C1C=NCc1ccccc1 has the entry inactive

(list continues)

Row | Compound | Potency | activity change, negative = inhibition
55 | Cn1ncc2c(=O)n(CC(=O)NC34CC5CC(CC(C5)C3)C4)cnc21 | inactive | –
56 | CC(=O)c1c(N2CCCC2)nc(=S)n(-c2ccccc2)c1C | inactive | –
57 | COC(=O)c1ccccc1NC(=O)NCc1ccco1 | inactive | –
58 | COc1cc(OC)cc(-c2nc3nc(C)c(CCC(=O)Nc4ccc(F)cc4F)c(C)n3n2)c1 | inactive | –
59 | CCc1nn(C(C)C(=O)N2CCN(c3cccc(C(F)(F)F)c3)CC2)c(=O)c2cc3occc3n12 (centres undefined) | inconclusive: 0.562 µM [inhibitor, full curve, poor fit] | –
60 | COc1cccc(C(=O)N2c3nc(-c4ccco4)nn3C3(CCCCC3)[C@@H]3CCCC[C@@H]32)c1 | inactive | –
61 | O=C(Cn1c(=O)oc2cc(S(=O)(=O)N3CCCC3)ccc21)Nc1cccc(C(F)(F)F)c1 | inconclusive: 31.6 µM [inhibitor, single point] | –
62 | CCOC(=O)Cc1csc(NC(=O)c2cc3c(s2)CCCC3)n1 | inconclusive: 18.3 µM [activator, single point] | –
63 | CC(=O)c1cccc(NC(=O)c2ccco2)c1 | inactive | –
64 | CCc1ccc(C2c3[nH]c4ccccc4c3CCN2C(=O)CN2CCN(CC)CC2)cc1 (centres undefined) | active: 12.6 µM | –
65 | CN(C)S(=O)(=O)n1cc(/C=C(\NC(=O)c2ccccc2Cl)C(=O)NCCCn2ccnc2)c2ccccc21 | inconclusive: 7.08 µM [inhibitor, partial curve, poor fit] | –
66 | O=C(Nc1ccc2c(c1)oc1ccccc12)N1CCOCC1 | inactive | –
67 | Cc1ccc(N(C(=O)c2csnn2)C(C(=O)NC2CCCCC2)c2ccccn2)c(C)c1 (centres undefined) | inactive | –
68 | Cc1csc(=O)n1CC(=O)OC(C)C(=O)Nc1ccc(N(C)C)cc1 (centres undefined) | inconclusive: 11.2 µM [activator, partial curve, poor fit] | –
69 | N/C(=N\c1nc2ccccc2o1)NC(=O)c1ccccc1Br | inconclusive: 10 µM [inhibitor, single point] | –
70 | CCN(CC)S(=O)(=O)c1ccc(NN=C2CCN(C)CC2)c([N+](=O)[O-])c1 | inactive | –
71 | O=C1C(c2cc(=O)c3ccccc3[nH]2)=C(O)c2ccccc21 | active: 5.62 µM | –
72 | CCN1C(=O)/C(=C2/C=CC=CN2C)OC1=S | inactive | –
73 | COc1ccc(CCNC(=S)NC2CCN(Cc3ccccc3)CC2)cc1 | inconclusive: 12.6 µM [inhibitor, partial curve, poor fit] | –
74 | CC(=O)c1sc(-c2ccccc2)cc1NS(=O)(=O)c1ccc(C)cc1 | inconclusive: 7.94 µM [inhibitor, partial curve, poor fit] | –
75 | O=C(O)/C=C/C(=O)NNC(=O)c1cc(-c2ccccc2)n[nH]1 | inactive | –
76 | O=C(CCS(=O)(=O)c1ccccc1)Nc1ccccn1 | inactive | –
77 | O=C(CSc1nnc(-c2ccccc2)n1-c1ccccc1)c1cccs1 | inactive | –
78 | CCN1CCCc2cc(CN(CCN3CCOCC3)C(=S)Nc3cccc(C)c3)ccc21 | inconclusive: 35.5 µM [inhibitor, single point] | –
79 | COc1ccc(C(=O)O)cc1S(=O)(=O)N1CCN(Cc2ccc3c(c2)OCO3)CC1 | inconclusive: 4.47 µM [inhibitor, partial curve, poor fit] | –

Copied from above (2 entries):
Row | Compound | Potency | activity change, negative = inhibition
72 | CCN1C(=O)/C(=C2/C=CC=CN2C)OC1=S | inactive | –
73 | COc1ccc(CCNC(=S)NC2CCN(Cc3ccccc3)CC2)cc1 | inconclusive: 12.6 µM [inhibitor, partial curve, poor fit] | –

Source: PubChem BioAssay AID540276 (National Center for Advancing Translational Sciences (NCATS), 2011)
